The other results are listed elsewhere or left out.

The experiment has as its target T1, OsSMF1 (Oryza sativa, UniProt Q6ZLB0 1-436).
T1 sequence: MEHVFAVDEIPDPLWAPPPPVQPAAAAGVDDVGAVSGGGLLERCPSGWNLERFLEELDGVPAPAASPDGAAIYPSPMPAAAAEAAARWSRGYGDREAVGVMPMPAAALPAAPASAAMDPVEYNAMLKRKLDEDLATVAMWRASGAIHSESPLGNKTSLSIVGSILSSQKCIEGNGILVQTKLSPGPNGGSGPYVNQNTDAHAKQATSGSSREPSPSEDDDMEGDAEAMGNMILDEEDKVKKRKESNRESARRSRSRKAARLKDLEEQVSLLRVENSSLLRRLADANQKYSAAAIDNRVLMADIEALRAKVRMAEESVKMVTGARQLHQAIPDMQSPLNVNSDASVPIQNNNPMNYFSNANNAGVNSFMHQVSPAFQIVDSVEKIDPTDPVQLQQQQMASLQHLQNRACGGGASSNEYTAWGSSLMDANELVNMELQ
In words: protein-binding microarray (RPBM); PBS, 2% BSA, 51.3 ng/ul salmon testes DNA, 50 uM zinc acetate, 200 nM TF, 25 C, 1 h; high values mean tight binding. The settings on record: protein: recombinant; tags: N-terminal polyhistidine and DsRed monomer fusion (pET32a); chain copies: 2; label: CyDye5-dUTP incorporated in the synthesized complementary strand; 3' TTTTT single-stranded linker to array surface; dsDNA, one strand shown. A digest of the protocol: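 Transcription factors were each fused at the N-terminus to a polyhistidine tag plus DsRed and expressed in E. coli BL21-CodonPlus before Ni–NTA purification. Binding to a double-stranded custom Agilent array was carried out with 200 nM protein at 25 °C for 1 h in PBS, 2% BSA, salmon testes DNA and 50 µM zinc acetate. The binding signal is per-feature fluorescence intensity, in arbitrary units, on an Axon 4000B scanner.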
Regarding “AGTCGCCACATCAGCTAAAACTATGATGAATATTGTCTTGCGGAGTCACCTAGTGCAG”, the binding signal was 14200 fluorescence intensity (a.u.).
Under “AGTTGGATATCAATTGGCCGATGTGTGGGTCAAGCAACAACGGAGTCACCTAGTGCAG” stands 17600 fluorescence intensity (a.u.); under “TGTCAGGGTGTCCACGTCAGCAGTTCTCTCTTTCCCCACTCGGAGTCACCTAGTGCAG”, 31700 fluorescence intensity (a.u.); under “GCCATCTCAGTGCCGGTGAGCTGGGGACGTGGTAATTTCCCGGAGTCACCTAGTGCAG”, 3760 fluorescence intensity (a.u.).
For “ATGCCATCAGCGTTAGTCAACCGTTAGTCATACACCATTACGGAGTCACCTAGTGCAG”, the binding signal is 3490 fluorescence intensity (a.u.).
Take “GACCCTGCATACATCGCATGTATCCCAATCAGCGGAGACACGGAGTCACCTAGTGCAG”: the binding signal is 3350 fluorescence intensity (a.u.).
Under “GTAGGCGACGCCGATCTCCCTCTACGTTGCGGCATTGGCTCGGAGTCACCTAGTGCAG” stands 3560 fluorescence intensity (a.u.).
In the case of “GATGCATGCTCTGAGTAGGCCACGTACCAGAACATTCGGGCGGAGTCACCTAGTGCAG” it was 5410 fluorescence intensity (a.u.).
As for “TAATCTTTTACTGACACATGTAATACAGGTAGTTAGTTTCCGGAGTCACCTAGTGCAG”, the binding signal is 3270 fluorescence intensity (a.u.).
Under “GAGCACAAGTTCTCACCAACTTGACTCATTGTTAAGAAGCCGGAGTCACCTAGTGCAG” stands 4350 fluorescence intensity (a.u.); under “AAGTTGCACAACCATAACAAGAAAATGTGATGCTATCTGACGGAGTCACCTAGTGCAG”, 7340 fluorescence intensity (a.u.).
Under “ACTCAGGAACAAGACGTGTCAGATTAGTCGAGGCTGTTCCCGGAGTCACCTAGTGCAG” stands 3260 fluorescence intensity (a.u.); under “CGCTCCGGCCGCCGCCGCCGCCGCCGTCGCGTGGGAGGGGCGGAGTCACCTAGTGCAG”, 7030 fluorescence intensity (a.u.); under “TCTATTGTATTAAACCGGTATGGTCCTAAACCGCTAAACCCGGAGTCACCTAGTGCAG”, 18800 fluorescence intensity (a.u.).
With “ACTCCCTCGCCTCACCACGCTCCCCTGCGTCAGGTCTTCCCGGAGTCACCTAGTGCAG”, the binding signal is 3790 fluorescence intensity (a.u.).
Turning to “TACTTGAGCGACGCGAGTCACCGAAACCGCCATGTAGGTTCGGAGTCACCTAGTGCAG”, the binding signal is 3380 fluorescence intensity (a.u.).
Under “GCTGGCTTCCAGTTGGGTGGTGAACCCAGACGGCTGCATTCGGAGTCACCTAGTGCAG” stands 26300 fluorescence intensity (a.u.); under “CGTGCAGGCGCTGATACTACTGGTGAATCGGAAGGTGACGCGGAGTCACCTAGTGCAG”, 3770 fluorescence intensity (a.u.); under “ATTGATTGTGTACGTTTTGCCCTTAATCCTTGTCAGCAGTCGGAGTCACCTAGTGCAG”, 7110 fluorescence intensity (a.u.).
In the case of “GTATTGATGTTAATGAATCTAGATAGATATATATGTCTAACGGAGTCACCTAGTGCAG” it was 26800 fluorescence intensity (a.u.); in that of “CGACGCGTGGCCTCGACGTGGCAGTGCCGAACCAAAGCTTCGGAGTCACCTAGTGCAG”, 5910 fluorescence intensity (a.u.).
In the case of “TTAACCTCGTGTGCATGCGTGTTTTGATTTCTCGCGGTTTCGGAGTCACCTAGTGCAG”, the binding signal was 6630 fluorescence intensity (a.u.).
Under “CCATTGAATTTTACGGCCGGGTCGGAAGAAATATATATAACGGAGTCACCTAGTGCAG” stands 32200 fluorescence intensity (a.u.); under “AGCGCCACAGTGTACTGAGTCACCGCCATGTGGGTCCCACCGGAGTCACCTAGTGCAG”, 10600 fluorescence intensity (a.u.).
As to “CCTTCGCCAATTGGGCGCTAATCAGGCGGGTATTTTGGATCGGAGTCACCTAGTGCAG”, the binding signal is 3410 fluorescence intensity (a.u.).
As to “AGCTAGCAGAGGCGCCGTCGTGGTCGCCGTCGTTCGTCCTCGGAGTCACCTAGTGCAG”, the binding signal is 4110 fluorescence intensity (a.u.).
For “CGAGTGACGAGGTCTTGGGTTGGGGTAGGGGTGGGATGAGCGGAGTCACCTAGTGCAG”, the binding signal is 5240 fluorescence intensity (a.u.).
As to “CTTTTGTTCACTTTGATCTAACAATTTAAGCATGATTATGCGGAGTCACCTAGTGCAG”, the binding signal was 3190 fluorescence intensity (a.u.).
With “CTTATTCAAGATTTATATAATTATCATTTATTTTATTGGGCGGAGTCACCTAGTGCAG”, the binding signal is 3840 fluorescence intensity (a.u.).
Consider “CTAATCAAAACCGGTCACAAAAGGTCCCTCGACGGTTTTGCGGAGTCACCTAGTGCAG”, for which the binding signal was 4570 fluorescence intensity (a.u.).
Under “GTCCTTCTTGCAACCAACAGTCTGGCAAGGCCGTTACGTCCGGAGTCACCTAGTGCAG” stands 3410 fluorescence intensity (a.u.).
As for “CGTCCACTTCCGCCGCCGTCGCCGCGTCCACCGCAGCCGCCGGAGTCACCTAGTGCAG”, the binding signal was 3680 fluorescence intensity (a.u.).
On to “GGAGGGCTAAGAATATATACTAGCATACAGTGCAGACGCTCGGAGTCACCTAGTGCAG”, for which the binding signal was 3270 fluorescence intensity (a.u.).
As to “GGCGGGCCTCGCCGGATCGCCGTCCACGTCCCGGCGACCGCGGAGTCACCTAGTGCAG”, the binding signal was 4880 fluorescence intensity (a.u.).
Under “GCTGCTGCACCACGTCCTTCCTCTTCCTCGCCCCACCACCCGGAGTCACCTAGTGCAG” stands 6380 fluorescence intensity (a.u.); under “GAGAGTATTTGGAACACGTCATCACTTCGTCCCTTATTATCGGAGTCACCTAGTGCAG”, 20200 fluorescence intensity (a.u.); under “GAGTCGCGAGCGAGTTAGGAAGGGGTACGTCGCGGTTGGACGGAGTCACCTAGTGCAG”, 3140 fluorescence intensity (a.u.).
As for “AGCAGCCAAGAAGAAATTTCTAGTCAGCAGCAAAGCTCTCCGGAGTCACCTAGTGCAG”, the binding signal was 4450 fluorescence intensity (a.u.).
Under “CCCGCGGATCGATCGATCGCCGCCGCGCGCCTGGACGAGCCGGAGTCACCTAGTGCAG” stands 3300 fluorescence intensity (a.u.).
In the case of “ACACGTCGGATTTGGGCTTGCGTGGCGCTAGGGTCCGCGCCGGAGTCACCTAGTGCAG” it was 9740 fluorescence intensity (a.u.); in that of “GTAGAATGACACCGTACGAGTAGCTGCGAAATTACGCATCCGGAGTCACCTAGTGCAG”, 3810 fluorescence intensity (a.u.); in that of “TGCCGAGGCAGAGCAGCGGAAGAATGTGGGCCAAATTAGGCGGAGTCACCTAGTGCAG”, 21700 fluorescence intensity (a.u.).
